Assay results: article PMC8534522
Results are given in words; binding and its absence hold for the method and conditions named. In cells and extracts the contact can be indirect. Some results given as binding are weak or reduced against the parent protein; the word gives no strength.

Chains of the proteins cited; added tags and fusions are not shown.
UniProt O75475: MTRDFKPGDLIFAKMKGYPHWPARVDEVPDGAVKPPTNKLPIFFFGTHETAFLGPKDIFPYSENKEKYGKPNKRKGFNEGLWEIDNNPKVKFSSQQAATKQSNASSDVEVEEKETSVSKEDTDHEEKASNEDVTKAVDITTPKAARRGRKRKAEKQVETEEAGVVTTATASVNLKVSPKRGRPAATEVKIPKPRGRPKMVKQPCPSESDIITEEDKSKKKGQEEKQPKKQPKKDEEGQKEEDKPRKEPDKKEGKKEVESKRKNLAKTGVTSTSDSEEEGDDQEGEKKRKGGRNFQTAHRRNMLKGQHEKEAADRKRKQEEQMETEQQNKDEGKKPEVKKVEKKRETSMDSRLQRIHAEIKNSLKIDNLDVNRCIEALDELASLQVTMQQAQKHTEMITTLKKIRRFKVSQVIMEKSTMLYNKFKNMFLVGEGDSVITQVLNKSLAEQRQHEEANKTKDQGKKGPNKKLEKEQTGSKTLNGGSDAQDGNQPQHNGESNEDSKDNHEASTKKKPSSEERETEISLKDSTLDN
UniProt Q7Z4V5: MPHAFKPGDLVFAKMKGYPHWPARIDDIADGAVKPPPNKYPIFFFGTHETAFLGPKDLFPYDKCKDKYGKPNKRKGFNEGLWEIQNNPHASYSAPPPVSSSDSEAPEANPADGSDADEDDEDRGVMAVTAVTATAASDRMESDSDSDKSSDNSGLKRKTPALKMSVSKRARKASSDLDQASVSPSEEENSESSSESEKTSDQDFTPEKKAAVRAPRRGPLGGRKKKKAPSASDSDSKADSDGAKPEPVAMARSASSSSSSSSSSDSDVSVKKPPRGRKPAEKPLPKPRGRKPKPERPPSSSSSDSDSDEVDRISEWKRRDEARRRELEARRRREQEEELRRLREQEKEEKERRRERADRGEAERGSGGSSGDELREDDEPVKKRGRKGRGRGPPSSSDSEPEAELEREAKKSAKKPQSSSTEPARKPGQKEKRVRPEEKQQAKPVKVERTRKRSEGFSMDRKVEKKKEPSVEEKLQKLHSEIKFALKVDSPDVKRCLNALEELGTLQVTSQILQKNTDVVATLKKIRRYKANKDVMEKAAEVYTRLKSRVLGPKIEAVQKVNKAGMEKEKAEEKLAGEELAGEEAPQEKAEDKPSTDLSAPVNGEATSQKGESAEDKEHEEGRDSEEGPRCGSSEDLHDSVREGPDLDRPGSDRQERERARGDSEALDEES
UniProt P01106: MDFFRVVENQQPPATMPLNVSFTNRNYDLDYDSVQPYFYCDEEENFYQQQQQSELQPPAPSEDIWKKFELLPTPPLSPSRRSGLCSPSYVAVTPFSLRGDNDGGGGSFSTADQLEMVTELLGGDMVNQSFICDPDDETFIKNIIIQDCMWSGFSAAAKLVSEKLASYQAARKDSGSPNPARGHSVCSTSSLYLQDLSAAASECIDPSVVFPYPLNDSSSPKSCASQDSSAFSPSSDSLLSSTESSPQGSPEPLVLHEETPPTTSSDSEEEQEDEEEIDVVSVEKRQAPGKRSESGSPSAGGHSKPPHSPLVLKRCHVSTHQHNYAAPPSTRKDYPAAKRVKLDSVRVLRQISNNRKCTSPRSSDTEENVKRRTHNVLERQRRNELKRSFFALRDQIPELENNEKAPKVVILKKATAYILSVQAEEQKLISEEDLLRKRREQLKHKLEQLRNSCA
UniProt Q03164: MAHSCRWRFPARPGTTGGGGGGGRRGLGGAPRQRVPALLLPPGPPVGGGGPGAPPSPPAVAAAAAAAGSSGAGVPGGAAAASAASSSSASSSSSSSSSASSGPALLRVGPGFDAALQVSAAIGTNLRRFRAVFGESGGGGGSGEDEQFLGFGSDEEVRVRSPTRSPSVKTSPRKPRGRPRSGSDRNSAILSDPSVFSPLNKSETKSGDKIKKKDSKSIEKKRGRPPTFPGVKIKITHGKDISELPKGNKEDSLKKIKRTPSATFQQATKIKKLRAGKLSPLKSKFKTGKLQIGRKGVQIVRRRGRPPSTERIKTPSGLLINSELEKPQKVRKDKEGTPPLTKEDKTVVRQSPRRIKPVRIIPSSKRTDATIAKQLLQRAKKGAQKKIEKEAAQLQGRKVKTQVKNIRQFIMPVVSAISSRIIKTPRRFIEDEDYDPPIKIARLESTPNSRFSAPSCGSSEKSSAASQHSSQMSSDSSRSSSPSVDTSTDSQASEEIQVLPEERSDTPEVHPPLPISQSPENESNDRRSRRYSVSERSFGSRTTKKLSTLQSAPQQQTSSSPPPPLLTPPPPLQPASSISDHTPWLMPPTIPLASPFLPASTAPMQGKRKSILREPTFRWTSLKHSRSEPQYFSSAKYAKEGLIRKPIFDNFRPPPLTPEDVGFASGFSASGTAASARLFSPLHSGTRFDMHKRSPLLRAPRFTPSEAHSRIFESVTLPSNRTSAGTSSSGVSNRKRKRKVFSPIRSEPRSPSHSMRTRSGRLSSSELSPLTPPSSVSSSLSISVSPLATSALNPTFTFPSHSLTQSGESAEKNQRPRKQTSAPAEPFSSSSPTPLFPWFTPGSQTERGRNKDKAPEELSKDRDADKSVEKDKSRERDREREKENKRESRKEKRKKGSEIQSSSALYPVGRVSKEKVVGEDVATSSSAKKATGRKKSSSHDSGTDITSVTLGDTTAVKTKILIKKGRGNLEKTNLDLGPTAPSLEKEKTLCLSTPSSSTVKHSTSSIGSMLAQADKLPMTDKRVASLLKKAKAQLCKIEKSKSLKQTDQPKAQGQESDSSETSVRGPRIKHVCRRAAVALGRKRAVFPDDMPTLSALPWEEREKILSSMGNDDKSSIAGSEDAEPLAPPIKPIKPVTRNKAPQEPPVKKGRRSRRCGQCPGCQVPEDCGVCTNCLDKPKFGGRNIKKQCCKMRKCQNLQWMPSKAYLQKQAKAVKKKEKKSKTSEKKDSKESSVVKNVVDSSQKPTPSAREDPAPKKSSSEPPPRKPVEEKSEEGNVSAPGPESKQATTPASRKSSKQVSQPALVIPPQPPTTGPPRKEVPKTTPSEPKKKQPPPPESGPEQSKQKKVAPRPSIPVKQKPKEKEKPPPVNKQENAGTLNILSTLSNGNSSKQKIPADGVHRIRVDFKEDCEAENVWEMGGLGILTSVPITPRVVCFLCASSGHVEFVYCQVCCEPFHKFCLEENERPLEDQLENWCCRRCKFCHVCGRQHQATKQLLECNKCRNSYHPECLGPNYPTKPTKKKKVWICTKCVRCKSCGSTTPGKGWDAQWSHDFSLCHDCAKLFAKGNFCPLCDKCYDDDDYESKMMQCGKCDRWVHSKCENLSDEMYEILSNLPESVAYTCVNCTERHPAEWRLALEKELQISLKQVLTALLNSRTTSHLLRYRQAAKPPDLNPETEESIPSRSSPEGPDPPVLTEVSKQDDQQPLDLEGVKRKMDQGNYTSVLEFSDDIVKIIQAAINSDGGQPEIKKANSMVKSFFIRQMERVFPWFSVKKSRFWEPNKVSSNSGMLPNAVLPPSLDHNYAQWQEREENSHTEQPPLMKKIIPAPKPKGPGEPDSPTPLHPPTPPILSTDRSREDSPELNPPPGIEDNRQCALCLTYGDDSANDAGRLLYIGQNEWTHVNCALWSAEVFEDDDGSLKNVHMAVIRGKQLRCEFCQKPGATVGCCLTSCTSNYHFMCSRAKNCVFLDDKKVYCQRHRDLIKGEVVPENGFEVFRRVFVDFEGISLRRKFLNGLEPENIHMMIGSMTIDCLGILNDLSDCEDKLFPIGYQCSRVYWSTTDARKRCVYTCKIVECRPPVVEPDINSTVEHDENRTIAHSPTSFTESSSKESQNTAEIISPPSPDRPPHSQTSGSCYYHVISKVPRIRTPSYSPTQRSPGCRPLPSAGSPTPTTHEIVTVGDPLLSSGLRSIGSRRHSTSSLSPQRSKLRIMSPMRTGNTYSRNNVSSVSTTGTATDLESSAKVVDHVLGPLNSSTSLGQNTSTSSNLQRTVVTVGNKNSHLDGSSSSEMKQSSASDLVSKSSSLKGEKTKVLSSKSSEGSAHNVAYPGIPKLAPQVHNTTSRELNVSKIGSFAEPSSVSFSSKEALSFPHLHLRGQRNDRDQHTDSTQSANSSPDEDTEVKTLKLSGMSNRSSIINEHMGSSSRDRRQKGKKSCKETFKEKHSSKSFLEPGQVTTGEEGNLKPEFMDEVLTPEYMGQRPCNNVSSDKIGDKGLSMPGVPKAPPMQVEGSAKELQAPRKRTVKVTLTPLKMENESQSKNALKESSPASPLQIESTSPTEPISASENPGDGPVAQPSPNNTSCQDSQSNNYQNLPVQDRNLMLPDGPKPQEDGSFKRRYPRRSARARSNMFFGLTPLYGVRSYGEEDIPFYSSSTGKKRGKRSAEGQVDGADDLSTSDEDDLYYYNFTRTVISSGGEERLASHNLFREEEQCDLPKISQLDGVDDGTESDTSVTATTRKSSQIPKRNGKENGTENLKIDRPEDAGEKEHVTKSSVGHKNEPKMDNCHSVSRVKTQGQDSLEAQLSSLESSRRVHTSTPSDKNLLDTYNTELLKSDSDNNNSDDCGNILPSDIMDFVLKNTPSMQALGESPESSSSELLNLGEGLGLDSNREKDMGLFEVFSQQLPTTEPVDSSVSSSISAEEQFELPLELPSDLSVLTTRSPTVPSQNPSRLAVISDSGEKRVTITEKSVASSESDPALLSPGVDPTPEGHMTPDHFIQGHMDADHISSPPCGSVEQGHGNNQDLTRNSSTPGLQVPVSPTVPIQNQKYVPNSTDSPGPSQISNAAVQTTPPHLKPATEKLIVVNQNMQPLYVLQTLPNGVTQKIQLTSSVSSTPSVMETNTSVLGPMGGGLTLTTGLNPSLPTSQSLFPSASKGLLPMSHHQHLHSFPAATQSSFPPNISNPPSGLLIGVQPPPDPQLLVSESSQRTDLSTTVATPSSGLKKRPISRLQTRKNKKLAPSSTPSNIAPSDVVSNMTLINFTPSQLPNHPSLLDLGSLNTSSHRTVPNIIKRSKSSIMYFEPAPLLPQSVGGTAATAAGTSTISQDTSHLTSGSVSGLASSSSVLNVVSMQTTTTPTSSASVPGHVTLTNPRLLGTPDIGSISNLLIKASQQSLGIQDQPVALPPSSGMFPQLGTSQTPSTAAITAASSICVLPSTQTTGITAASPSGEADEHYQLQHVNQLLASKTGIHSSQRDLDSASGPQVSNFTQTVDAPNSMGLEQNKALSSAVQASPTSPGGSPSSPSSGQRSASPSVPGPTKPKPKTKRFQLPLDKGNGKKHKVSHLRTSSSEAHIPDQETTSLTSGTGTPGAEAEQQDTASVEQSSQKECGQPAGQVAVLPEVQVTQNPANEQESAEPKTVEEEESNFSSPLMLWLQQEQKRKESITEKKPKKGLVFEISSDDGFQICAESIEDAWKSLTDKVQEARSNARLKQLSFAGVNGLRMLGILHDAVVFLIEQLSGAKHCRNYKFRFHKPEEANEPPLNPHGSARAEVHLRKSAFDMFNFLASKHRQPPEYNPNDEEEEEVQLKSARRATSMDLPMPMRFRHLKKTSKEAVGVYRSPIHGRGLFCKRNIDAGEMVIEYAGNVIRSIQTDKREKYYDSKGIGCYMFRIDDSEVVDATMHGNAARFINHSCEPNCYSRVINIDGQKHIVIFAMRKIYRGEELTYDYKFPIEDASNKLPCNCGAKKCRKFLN
UniProt P11387: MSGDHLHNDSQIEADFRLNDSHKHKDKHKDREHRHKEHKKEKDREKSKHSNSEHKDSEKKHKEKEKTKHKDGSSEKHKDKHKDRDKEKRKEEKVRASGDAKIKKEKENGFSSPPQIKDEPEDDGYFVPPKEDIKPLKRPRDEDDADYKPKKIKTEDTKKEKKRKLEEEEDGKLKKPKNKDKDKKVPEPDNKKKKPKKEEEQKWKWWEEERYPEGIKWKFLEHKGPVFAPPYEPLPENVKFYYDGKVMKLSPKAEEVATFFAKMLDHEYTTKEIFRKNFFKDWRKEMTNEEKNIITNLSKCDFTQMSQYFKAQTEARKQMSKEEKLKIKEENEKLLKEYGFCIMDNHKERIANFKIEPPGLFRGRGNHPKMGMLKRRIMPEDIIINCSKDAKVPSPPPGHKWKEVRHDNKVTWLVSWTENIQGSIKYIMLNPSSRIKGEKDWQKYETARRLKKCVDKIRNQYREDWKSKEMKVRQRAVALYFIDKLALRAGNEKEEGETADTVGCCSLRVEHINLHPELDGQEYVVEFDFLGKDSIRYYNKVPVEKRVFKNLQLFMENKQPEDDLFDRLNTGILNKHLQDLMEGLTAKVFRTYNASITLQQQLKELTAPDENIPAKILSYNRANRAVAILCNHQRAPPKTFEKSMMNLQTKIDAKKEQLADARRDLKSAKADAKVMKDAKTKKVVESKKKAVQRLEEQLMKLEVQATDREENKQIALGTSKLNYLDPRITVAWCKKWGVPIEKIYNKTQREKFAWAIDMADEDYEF

Molecular target: lens epithelium-derived growth factor p75 (LEDGF/p75) (human (endogenous in PC3-DR and DU145-DR)) (UniProt O75475)
Assay: co-IP; endogenous proteins from whole cell lysates (500 ug, non-denaturing lysis buffer) of PC3-DR and DU145-DR cells; LEDGF/p75 precipitated with human anti-LEDGF/p75 (DFS) autoantibody sera (1:100) and Protein A/G Sepharose, 12 h at 4 °C; partners detected by immunoblot; normal human serum as negative control

Substance	binding
HRP2 (from UniProt Q7Z4V5 1-671)	binds
c-MYC (from UniProt P01106 1-454)	binds
mixed leukemia lineage histone lysine methyltransferase protein MLL (from UniProt Q03164 1-3969)	binds
DNA topoisomerase I (TOPO-1/Scl-70) (from UniProt P11387 1-765)	no binding
